# The shares of active, inactive and inconclusive entries below differ from those in the screen. For some of these results: Potencies of inconclusive entries are doubtful fits and often do not repeat. The source holds several records for some structures; these can differ, active in one and inactive in another. Active and inactive are the calls of the source. The calls were made as follows: active = hit-call score of the fitted dose curve at least 0.9, where 1 is the maximum; inconclusive = response in the unintended direction; inactive = score below 0.9.
# Amino acid sequences for entries named in this document (tags omitted). A change or cut given only in a name is not applied to a line headed by its entry.
# UniProt Q9UNQ0: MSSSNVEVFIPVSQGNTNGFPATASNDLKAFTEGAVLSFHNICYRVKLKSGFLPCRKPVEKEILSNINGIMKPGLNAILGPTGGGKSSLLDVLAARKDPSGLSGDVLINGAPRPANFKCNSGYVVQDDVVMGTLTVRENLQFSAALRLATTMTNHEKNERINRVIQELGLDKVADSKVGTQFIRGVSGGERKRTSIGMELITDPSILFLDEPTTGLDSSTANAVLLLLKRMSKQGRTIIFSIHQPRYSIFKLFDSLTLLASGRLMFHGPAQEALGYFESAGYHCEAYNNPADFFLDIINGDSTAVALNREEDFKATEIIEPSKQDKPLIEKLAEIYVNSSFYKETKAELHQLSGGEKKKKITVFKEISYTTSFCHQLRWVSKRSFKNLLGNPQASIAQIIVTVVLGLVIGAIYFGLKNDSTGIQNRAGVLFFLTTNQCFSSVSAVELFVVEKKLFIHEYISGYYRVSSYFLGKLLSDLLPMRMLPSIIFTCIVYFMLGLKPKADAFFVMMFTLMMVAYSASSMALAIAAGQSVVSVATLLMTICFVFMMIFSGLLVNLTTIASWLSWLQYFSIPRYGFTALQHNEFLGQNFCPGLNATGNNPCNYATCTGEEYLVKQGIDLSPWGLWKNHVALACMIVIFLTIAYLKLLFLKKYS
# UniProt P16257, whole entry, looked up: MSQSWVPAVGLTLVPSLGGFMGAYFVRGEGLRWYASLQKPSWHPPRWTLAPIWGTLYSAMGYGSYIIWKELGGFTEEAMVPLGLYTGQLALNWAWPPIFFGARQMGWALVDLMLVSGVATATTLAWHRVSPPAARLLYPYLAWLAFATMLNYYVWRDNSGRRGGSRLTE
# UniProt P31751: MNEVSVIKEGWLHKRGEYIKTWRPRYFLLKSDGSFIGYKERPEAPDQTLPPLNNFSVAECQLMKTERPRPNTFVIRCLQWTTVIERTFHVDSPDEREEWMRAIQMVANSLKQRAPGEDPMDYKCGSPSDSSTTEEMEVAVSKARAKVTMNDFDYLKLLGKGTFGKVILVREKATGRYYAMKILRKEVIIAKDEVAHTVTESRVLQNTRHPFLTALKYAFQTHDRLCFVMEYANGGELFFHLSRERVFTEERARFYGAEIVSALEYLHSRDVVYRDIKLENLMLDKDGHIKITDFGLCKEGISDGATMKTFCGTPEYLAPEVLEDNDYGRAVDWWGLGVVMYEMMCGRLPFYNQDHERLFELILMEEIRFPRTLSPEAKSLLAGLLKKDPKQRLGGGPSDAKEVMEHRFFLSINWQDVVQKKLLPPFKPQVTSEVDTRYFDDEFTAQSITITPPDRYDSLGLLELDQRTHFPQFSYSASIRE
# UniProt P03372, whole entry, looked up: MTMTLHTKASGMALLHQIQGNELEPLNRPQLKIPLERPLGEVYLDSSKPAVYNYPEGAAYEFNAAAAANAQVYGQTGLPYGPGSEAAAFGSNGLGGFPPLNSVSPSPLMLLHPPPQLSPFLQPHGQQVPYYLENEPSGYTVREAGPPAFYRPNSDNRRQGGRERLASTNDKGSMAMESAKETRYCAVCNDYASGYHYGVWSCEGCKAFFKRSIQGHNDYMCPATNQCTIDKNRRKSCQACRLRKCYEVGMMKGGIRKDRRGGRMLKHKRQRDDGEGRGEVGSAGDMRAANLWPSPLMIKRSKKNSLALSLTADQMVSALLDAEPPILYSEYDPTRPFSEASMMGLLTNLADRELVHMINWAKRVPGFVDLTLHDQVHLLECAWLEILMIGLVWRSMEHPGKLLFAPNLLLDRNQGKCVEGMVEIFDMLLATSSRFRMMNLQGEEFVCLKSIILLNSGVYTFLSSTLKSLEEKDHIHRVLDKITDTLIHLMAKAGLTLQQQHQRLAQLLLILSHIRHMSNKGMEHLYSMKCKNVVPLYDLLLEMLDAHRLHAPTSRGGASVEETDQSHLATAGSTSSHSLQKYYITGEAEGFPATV
# UniProt Q92731, whole entry, looked up: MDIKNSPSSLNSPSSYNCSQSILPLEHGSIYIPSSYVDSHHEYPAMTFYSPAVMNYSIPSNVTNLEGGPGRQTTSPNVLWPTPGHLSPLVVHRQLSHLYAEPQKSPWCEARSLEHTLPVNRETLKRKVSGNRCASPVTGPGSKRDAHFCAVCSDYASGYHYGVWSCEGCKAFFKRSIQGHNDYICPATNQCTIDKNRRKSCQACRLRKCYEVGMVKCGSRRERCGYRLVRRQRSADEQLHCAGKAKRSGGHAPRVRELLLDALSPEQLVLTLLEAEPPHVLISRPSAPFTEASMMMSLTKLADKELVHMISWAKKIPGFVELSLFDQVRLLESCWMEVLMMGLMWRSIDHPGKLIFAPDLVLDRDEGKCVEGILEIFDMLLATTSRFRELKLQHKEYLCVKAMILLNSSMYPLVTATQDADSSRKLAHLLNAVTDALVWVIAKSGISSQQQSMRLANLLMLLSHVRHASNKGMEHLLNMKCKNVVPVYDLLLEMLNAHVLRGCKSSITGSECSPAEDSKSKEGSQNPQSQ
# UniProt P37231: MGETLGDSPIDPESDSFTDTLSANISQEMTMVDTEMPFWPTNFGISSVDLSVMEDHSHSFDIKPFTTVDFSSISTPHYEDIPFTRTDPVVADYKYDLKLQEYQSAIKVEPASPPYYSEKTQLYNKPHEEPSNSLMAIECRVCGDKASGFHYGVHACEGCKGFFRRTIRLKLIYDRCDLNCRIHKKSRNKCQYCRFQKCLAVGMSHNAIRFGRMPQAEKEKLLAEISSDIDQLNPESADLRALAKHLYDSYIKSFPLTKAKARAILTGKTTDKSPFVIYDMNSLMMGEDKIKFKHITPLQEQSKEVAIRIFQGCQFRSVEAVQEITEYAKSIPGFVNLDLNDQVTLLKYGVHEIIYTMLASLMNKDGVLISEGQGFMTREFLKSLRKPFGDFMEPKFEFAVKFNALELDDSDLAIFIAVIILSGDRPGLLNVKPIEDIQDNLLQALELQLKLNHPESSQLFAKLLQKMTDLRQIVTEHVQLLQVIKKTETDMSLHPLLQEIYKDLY
# UniProt P05979, whole entry, looked up: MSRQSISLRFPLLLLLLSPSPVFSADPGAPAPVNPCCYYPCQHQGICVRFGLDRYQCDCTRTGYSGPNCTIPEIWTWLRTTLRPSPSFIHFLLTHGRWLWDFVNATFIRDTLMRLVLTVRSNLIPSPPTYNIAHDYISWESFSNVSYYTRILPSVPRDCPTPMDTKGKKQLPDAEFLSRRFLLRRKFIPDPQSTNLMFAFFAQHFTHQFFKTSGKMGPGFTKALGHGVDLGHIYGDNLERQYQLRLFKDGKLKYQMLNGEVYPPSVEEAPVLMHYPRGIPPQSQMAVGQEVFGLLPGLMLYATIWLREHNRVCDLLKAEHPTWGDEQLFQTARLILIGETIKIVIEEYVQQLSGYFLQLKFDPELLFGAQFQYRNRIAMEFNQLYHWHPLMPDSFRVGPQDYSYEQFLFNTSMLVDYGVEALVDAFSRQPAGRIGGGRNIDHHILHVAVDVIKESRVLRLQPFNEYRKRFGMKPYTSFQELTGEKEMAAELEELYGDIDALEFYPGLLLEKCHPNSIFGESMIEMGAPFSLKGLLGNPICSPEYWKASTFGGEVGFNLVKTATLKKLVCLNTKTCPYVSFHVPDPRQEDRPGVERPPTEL
# UniProt P10827: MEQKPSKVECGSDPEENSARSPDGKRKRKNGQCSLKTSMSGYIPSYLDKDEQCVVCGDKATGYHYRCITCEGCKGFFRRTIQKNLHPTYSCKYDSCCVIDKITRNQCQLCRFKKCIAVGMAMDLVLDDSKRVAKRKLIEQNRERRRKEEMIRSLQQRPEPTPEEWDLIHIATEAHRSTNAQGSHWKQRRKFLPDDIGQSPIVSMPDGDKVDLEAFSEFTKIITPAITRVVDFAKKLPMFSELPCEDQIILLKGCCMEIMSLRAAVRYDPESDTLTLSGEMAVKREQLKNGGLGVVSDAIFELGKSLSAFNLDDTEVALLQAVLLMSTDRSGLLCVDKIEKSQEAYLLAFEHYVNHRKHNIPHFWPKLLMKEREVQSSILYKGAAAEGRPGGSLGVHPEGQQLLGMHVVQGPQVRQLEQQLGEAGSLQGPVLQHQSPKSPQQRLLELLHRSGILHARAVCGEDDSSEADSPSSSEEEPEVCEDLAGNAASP
# Tests used:
# [1] = read-out: Broad substrate specificity ATP-binding cassette transporter ABCG2 (Homo sapiens) (UniProt Q9UNQ0); test: CLD_ABCG2_6hr: CellzDirect (CLD) Gene Expression Assay for ABC Transporter (ABCG2) at 6 hours (AID 2283660)
# How it was run: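 Primary human hepatocytes dosed daily with chemicals at multiple concentrations (0.2% DMSO vehicle), harvested 6 h after dosing. ABCG2 mRNA induction read by quantitative nuclease protection assay (qNPA) chemiluminescence; gain of signal fitted against DMSO baseline.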
# [2] = read-out: xenobiotic metabolism (CYP1A2), CYP1A2 (gene 1544); test: CLD_CYP1A2_6hr: CellzDirect (CLD) Gene Expression Assay for xenobiotic metabolism (CYP1A2) at 6 hours (AID 2283663);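 also: potency is for induction meaning a rise in mRNA above DMSO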
# How it was run: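 Primary human hepatocytes from two donor preparations, dosed daily with multiple concentrations in 0.2% DMSO and harvested at 6 h. CYP1A2 mRNA induction measured by chemiluminescent qNPA, gain of signal fitted against DMSO; cytotoxicity flagged morphologically.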
# [3] = read-out: xenobiotic metabolism (CYP2C9), CYP2C9 (gene 1559); test: CLD_CYP2C9_6hr: CellzDirect (CLD) Gene Expression Assay for xenobiotic metabolism (CYP2C9) at 6 hours (AID 2283664)
# How it was run: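 Primary human hepatocytes dosed daily with test chemicals at multiple concentrations; harvested at 6 h. CYP2C9 mRNA induction measured by qNPA chemiluminescence. Gain of signal fitted against 0.2% DMSO vehicle; cytotoxicity annotated from phase-contrast morphology.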
# [4] = read-out: sulfotransferase (SULT2A), SULT2A1 (gene 6822); test: CLD_SULT2A_48hr: CellzDirect (CLD) Gene Expression Assay for sulfotransferase (SULT2A) at 48 hours (AID 2283710);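 also: hits raise SULT2A1 transcript above the 0.2% DMSO vehicle baseline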
# How it was run: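 Primary human hepatocytes (two donor preparations) dosed daily for two days with chemicals at multiple concentrations, vehicle 0.2% DMSO; SULT2A1 mRNA induction at 48 h by quantitative nuclease protection assay, chemiluminescent read-out, fitted for gain of signal versus DMSO.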
# [5] = CLD_ACTIN_6hr: CellzDirect (CLD) Gene Expression Assay for Baseline Control (Actin) at 6 hours (AID 2283676)
# How it was run: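 Primary human hepatocytes dosed with fresh chemical solutions (vehicle 0.2% DMSO), harvested at 6 h. Actin mRNA quantified by quantitative nuclease protection assay with chemiluminescent read-out, as background control relative to DMSO.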
# [6] = target: rat Peripheral-type Benzodiazepine Receptor (PBR), Tspo (gene 24230) (UniProt P16257); test: NVS_MP_rPBR: NovaScreen (NVS) Membrane Protein Assay for rat Peripheral-type Benzodiazepine Receptor (PBR) (AID 2283335)
# How it was run: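 Radioligand displacement, rat kidney membrane prep, 1 h exposure, filter-based scintillation read; DMSO baseline, loss-of-signal scored. Primary screen at 25 uM in duplicate, actives followed up in concentration series.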
# [7] = Tanguay_ZF_120hpf_SWIM_legacy: (Legacy) Oregon State University Tanguay Lab 120 Hour Post-fertilization zebrafish Assay for Swim Bladder Malformation (AID 2283654);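 also: swim bladder malformation in each larva scored yes or no under brightfield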
# How it was run: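 Dechorionated Tropical 5D wild-type embryos, placed singly from 6 hpf, were statically exposed at 28C to 120 hpf with 0.64% DMSO final; swim bladder malformation was scored present/absent by brightfield microscopy, gain of signal relative to DMSO controls.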
# [8] = Tanguay_ZF_120hpf_EYE_legacy: (Legacy) Oregon State University Tanguay Lab 120 Hour Post-fertilization zebrafish Assay for Eye Malformation (AID 2283636);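 also: binary presence or absence of eye malformation scored by brightfield in 120 hpf larvae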
# How it was run: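 Dechorionated wild-type Tropical 5D zebrafish embryos were exposed statically from 6 hpf, one per well, to 120 hpf at 28C in sealed, foil-covered plates with 0.64% DMSO. Eye malformation was scored present/absent by brightfield microscopy against DMSO controls.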
# [9] = CCTE_Mundy_HCI_hNP1_CellTiter: CCTE's Cell Titer-Glo 2 Assay in human neuroprogenitor cells for Viability, Mundy Lab (AID 2284241);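 also: a hit is a drop in ATP luminescence versus DMSO meaning reduced viability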
# How it was run: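 Measures ATP content in human neural progenitors derived from WA09 embryonic cells. Read-out at 26.5 hours after dosing, with DMSO serving as the negative control and baseline.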
# [10] = CCTE_Mundy_HCI_Cortical_Synap_Neur_Matur_NeuronCount: CCTE's Synaptogenesis and Neurite Maturation Assay in rat cortical cells for Neuron Count, Mundy Lab (AID 2284242);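 as to AC50: neuron number from Hoechst nuclei and MAP2 staining by high-content imaging; hits reduce neuron count versus DMSO baseline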
# How it was run: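 Imaging-based neuron count in rat cortical cultures after chemical exposure from DIV 7 to DIV 12, with AraC added at DIV 5. Activity is fitted relative to DMSO.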
# [11] = target: human AKT serine/threonine Kinase 2 (AKT2), AKT2 (gene 208) (UniProt P31751); test: NVS_ENZ_hAKT2: NovaScreen (NVS) Enzymatic Assay for human AKT serine/threonine Kinase 2 (AKT2) (AID 2283141)
# How it was run: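 Cell-free fluorescence/electrophoretic mobility shift readout of recombinant human AKT2 activity, 1 h after chemical dosing. Duplicate primary screen at 25 uM, then singleton concentration-response up to 50 uM; loss of signal versus DMSO baseline.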
# [12] = target: Estrogen receptor (Homo sapiens) + Estrogen receptor beta (Homo sapiens) (UniProt P03372+Q92731); test: OT_ER_ERaERb_0480: Odyssey Thera (OT) 8-hour HEK293T Protein-Complementation Assay for Estrogen Receptor-alpha/-beta Heterodimer (AID 2283352)
# How it was run: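 HEK293T cells expressing ER-alpha/ER-beta LBD fusions to complementary reporter fragments were dosed with compound for 8 hours. Heterodimer formation was read as increased nuclear (agonist) or nuclear plus cytoplasmic (antagonist) mean fluorescence intensity versus DMSO vehicle.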
# [13] = target: Peroxisome proliferator-activated receptor gamma (Homo sapiens) (UniProt P37231); test: NVS_NR_hPPARg: NovaScreen (NVS) Nuclear Receptor Binding Assay for human Peroxisome Proliferator-activated Receptor gamma (PPARg) (AID 2283370)
# How it was run: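 Cell-free binding to extracted PPARg protein, read by fluorescence polarization 2 h after dosing; loss of signal relative to DMSO baseline marks displacement. Primary screen in duplicate at 25 uM, actives retested in concentration series.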
# [14] = target: sheep Cyclooxygenase-1 (Cox1), PTGS1 (gene 443551) (UniProt P05979); test: NVS_ENZ_oCOX1: NovaScreen (NVS) Enzymatic Assay for sheep Cyclooxygenase-1 (Cox1) (AID 2283239);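 also: actives reduce cyclooxygenase activity so potencies are for inhibitors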
# How it was run: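 Cell-free colorimetric assay of enzyme activity in a native extract of ovine seminal vesicles. Absorbance was read 0.66 hour after compound addition. Loss of signal relative to the DMSO negative control was scored, with actives from the 25 uM duplicate primary screen retested in concentration series.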
# [15] = CCTE_Mundy_HCI_Cortical_NOG_NeuronCount: CCTE's Neurite Outgrowth Assay in rat cortical cells for Neuron Count, Mundy Lab (AID 2284236);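 also: neurons counted by imaging betaIII-tubulin and Hoechst stained cortical cells; cells exposed to compound for about 48 hours before fixation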
# How it was run: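 Read-out: neuron number by high-content imaging of betaIII-tubulin (Alexa Fluor-488) and Hoechst-labelled rat primary cortical cells.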
# [16] = read-out: ABC Transporter (ABCB1), ABCB1 (gene 5243); test: CLD_ABCB1_48hr: CellzDirect (CLD) Gene Expression Assay for ABC Transporter (ABCB1) at 48 hours (AID 2283695);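 also: potency for induction meaning increase of mRNA over DMSO vehicle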
# How it was run: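 Primary human hepatocytes from two donor preparations dosed daily on two consecutive days with 0.2% DMSO vehicle. Harvest at 48 h. ABCB1 mRNA quantified by qNPA with chemiluminescence and fitted for gain of signal versus DMSO.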
# [17] = tested on: Sodium/Iodide Symporter (NIS), SLC5A5 (gene 6528); test: CPHEA_Stoker_NIS_Inhibition_RAIU: CPHEA's Radioactive Iodide Uptake (RAIU) Assay for Sodium/Iodide Symporter (NIS) Inhibition, Stoker and Laws Labs (AID 2283841)
# How it was run: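 Test chemicals, six concentrations from 0.001 to 100uM in 0.5% DMSO, were co-incubated with carrier-free 125I (final 329pM) on hNIS-HEK293T-EPA monolayers in pH 7.4 HEPES-buffered HBSS. Plates stood 2 hours at room temperature, then were washed cold and counted.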
# [18] = target: human Thyroid Receptor Alpha (TRa), THRA (gene 7067) (UniProt P10827); test: NVS_NR_hTRa_Antagonist: NovaScreen (NVS) Nuclear Receptor Binding Assay for human Thyroid Receptor Alpha Antagonism (TRa) (AID 2283362);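 also: activity is loss of signal relative to DMSO baseline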
# How it was run: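 Cell-free binding assay on extracted receptor protein, read 1 h after chemical dosing by AlphaLISA chemiluminescence; loss of signal relative to DMSO baseline marks antagonism. Primary screen ran in duplicate at 25 uM, with concentration series for actives.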
# [19] = Tanguay_ZF_120hpf_JAW_legacy: (Legacy) Oregon State University Tanguay Lab 120 Hour Post-fertilization zebrafish Assay for Jaw Malformation (AID 2283638);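 also: active means more embryos with jaw malformation than DMSO controls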
# How it was run: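 Tropical 5D wild-type embryos, dechorionated with pronase at 4 hpf, were placed singly per well at 6 hpf and statically exposed at 28C until 120 hpf (0.64% DMSO final). Jaw malformation scored as present/absent by brightfield microscopy at 120 hpf, analyzed relative to DMSO.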
smiles,measurement,setting,value
Nc1nc(N)nc(NC2CC2)n1,AC50,[1],inconclusive: 20 µM
same,AC50,[2],inconclusive: 0.0378 µM
same,outcome,[3],inactive
same,AC50,[4],inconclusive: 37.5 µM
CCOP(=S)(OCC)Oc1nc(Cl)n(C(C)C)n1,outcome,[3],inactive
same,AC50,[5],inconclusive: 0.00571 µM
same,outcome,[4],inactive
C[C@@H]1C[C@@H]([C@H](O)CC2CC(=O)NC(=O)C2)C(=O)[C@@H](C)C1,AC50,[6],inconclusive: 22.4 µM
same,AC50,[7],inconclusive: 6.26 µM
N#CC(Br)Br,AC50,[8],inconclusive: 87.5 µM
CC1(C)[C@H](C(=O)O[C@H](C#N)c2cccc(Oc3ccccc3)c2)[C@@H]1/C=C(\Cl)C(F)(F)F,outcome,[6],inactive
same,AC50,[9],inconclusive: 0.00127 µM
same,AC50,[10],active: 3.56 µM
N#Cc1ccc(N(CC(N)=O)CC(F)(F)F)cc1C(F)(F)F,outcome,[11],inactive
same,outcome,[12],inactive
same,AC50,[13],inconclusive: 0.164 µM
same,outcome,[7],inactive
CCOc1ccc(C(C)(C)COCc2cccc(Oc3ccccc3)c2)cc1,AC50,[14],inconclusive: 25 µM
same,outcome,[12],inactive
same,AC50,[13],inconclusive: 25 µM
same,AC50,[15],inconclusive: 3.66 µM
CCC(=O)Nc1ccc(Cl)c(Cl)c1,outcome,[7],inactive
same,AC50,[1],inconclusive: 20 µM
same,AC50,[3],inconclusive: 20 µM
same,AC50,[5],inconclusive: 20 µM
same,AC50,[16],inconclusive: 34 µM
same,AC50,[4],inconclusive: 20 µM
same,outcome,[17],inactive
O=c1[nH]c2ccccc2c(=O)o1,AC50,[14],active: 4.96 µM
CC(=O)C=Cc1ccccc1,outcome,[13],inactive
Nc1ccc(-c2ccc(N)c(Cl)c2)cc1Cl,AC50,[14],active: 1.64 µM
O=NN1CCCC1,outcome,[17],inactive
CC1CCCC1.[C-]#[O+].[C-]#[O+].[C-]#[O+].[Mn],outcome,[18],inactive
O=[N+]([O-])O,AC50,[13],inconclusive: 25 µM
Oc1ccccc1Cl,AC50,[19],inconclusive: 183 µM
O=C(O)C(F)(F)C(F)(F)C(F)(F)C(F)(F)C(F)(F)C(F)(F)C(F)(F)F,outcome,[11],inactive
same,AC50,[6],inconclusive: 6.29 µM
same,AC50,[18],inconclusive: 4.96 µM
same,outcome,[7],inactive
same,AC50,[2],inconclusive: 3.97 µM
same,outcome,[15],inactive
same,AC50,[9],inconclusive: 50 µM
same,outcome,[10],inactive

# Reformatted: entries from further up
smiles | measurement | setting | value
CCOc1ccc(C(C)(C)COCc2cccc(Oc3ccccc3)c2)cc1 | AC50 | [13] | inconclusive: 25 µM
O=c1[nH]c2ccccc2c(=O)o1 | AC50 | [14] | active: 4.96 µM
